# This is one part of the list. The exact form of the protein is not confirmed.
# Target: T1, ELF2 (UniProt Q15723)
# T1 sequence: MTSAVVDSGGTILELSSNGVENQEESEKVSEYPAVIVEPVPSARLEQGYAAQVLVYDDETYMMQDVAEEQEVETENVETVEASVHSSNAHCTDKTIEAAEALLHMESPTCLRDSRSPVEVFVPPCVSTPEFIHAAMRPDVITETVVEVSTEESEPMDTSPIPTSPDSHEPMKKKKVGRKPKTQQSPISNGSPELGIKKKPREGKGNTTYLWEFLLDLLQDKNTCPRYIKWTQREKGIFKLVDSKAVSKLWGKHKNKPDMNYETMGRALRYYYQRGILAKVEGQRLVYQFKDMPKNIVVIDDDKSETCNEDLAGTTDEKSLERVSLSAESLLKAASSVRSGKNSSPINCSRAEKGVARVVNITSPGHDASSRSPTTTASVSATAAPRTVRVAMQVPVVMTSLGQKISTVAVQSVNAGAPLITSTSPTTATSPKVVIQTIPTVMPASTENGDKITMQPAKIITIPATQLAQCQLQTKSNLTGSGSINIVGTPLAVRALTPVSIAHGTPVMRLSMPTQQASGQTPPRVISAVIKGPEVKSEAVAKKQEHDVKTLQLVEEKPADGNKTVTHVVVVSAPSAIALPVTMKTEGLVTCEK
# Test: DAPPL (digital affinity profiling via proximity ligation, sequencing)
# Conditions: 10 mM Tris-HCl pH 7.5, 50 mM NaCl, 1 mM DTT, 4% glycerol, room temperature, 30 min; GST-TFs on glutathione beads, 16-mer random dsDNA library, 0.1% …; high values mean tight binding; double strand, one strand shown; scale: fold enrichment (6-mer frequency, TF over GST control)
row,Sequence,binding signal
1,AAGCCC,1.11
2,ATTAGT,1.02
3,CTATAG,0.987
4,CTAGTA,1.06
5,CTGTAT,1.3
6,AGGGAT,0.77
7,CTGATT,1.21
8,CCGTCT,1.34
9,CCAGAT,0.849
10,AATCCA,1.06
11,TCGATA,1.04
12,CTAGAC,0.903
13,CAGAAC,0.887
14,TCCCTG,1.22
15,TGACCA,1.19
16,CTCGTT,1.21
17,TAATAC,1.12
18,ATTTTG,1.2
19,TTAGGC,0.938
20,ACCCTC,1.09

row,Sequence,binding signal
1,CTATTT,1.86
2,TAGATT,1.18
3,TAAGTC,0.894
4,TCCACC,1.15
5,TATTGC,1.32
6,TCAAAA,1.15
7,AATGCG,1.37
8,CAGAAA,0.957
9,ATGAAG,1.02
10,AAGCTT,1.36
11,TCGAAA,0.915
12,TCTACC,1.59
13,TAGCGT,0.969
14,ACAGAA,0.922
15,TCGAGG,0.737
16,CCATTA,1.08
17,CTCACG,1.22
18,CATTCG,1.09
19,TGGGCT,1.36
20,TAATAT,1.3

# An excerpt of these results, with tabs:
row	Sequence	binding signal
16	CCATTA	1.08
17	CTCACG	1.22
18	CATTCG	1.09

# — publication PMC7862700
